# Reference: paper PMC7819943, “Rice protein-binding microarrays: a tool to detect cis-acting elements near promoter regions in rice”
# The chains behind the UniProt entries cited, without tags or fusion partners.
# UniProt Q0JBA9, entry or part of it: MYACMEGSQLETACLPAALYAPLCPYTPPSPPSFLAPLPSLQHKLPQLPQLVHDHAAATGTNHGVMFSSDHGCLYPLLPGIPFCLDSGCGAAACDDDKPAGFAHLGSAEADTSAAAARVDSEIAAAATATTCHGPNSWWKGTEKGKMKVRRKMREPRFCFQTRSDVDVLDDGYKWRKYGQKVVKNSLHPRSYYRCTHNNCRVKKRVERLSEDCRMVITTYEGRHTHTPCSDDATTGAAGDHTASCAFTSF
# The list shows a part of the results.
# Target: OsWRKY34 (Oryza sativa, UniProt Q0JBA9 1-250)
# Test: protein-binding microarray (RPBM); PBS, 2% BSA, 51.3 ng/ul salmon testes DNA, 50 uM zinc acetate, 200 nM TF, 25 C, 1 h; high values mean tight binding
# Conditions: protein: recombinant; tags: N-terminal polyhistidine and DsRed monomer fusion (pET32a); label: CyDye5-dUTP incorporated in the synthesized complementary strand; 3' TTTTT single-stranded linker to array surface; dsDNA, one strand shown
# Summary of the method: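 In PBS with 2% BSA, salmon testes DNA and 50 µM zinc acetate, 200 nM protein was incubated on a custom Agilent array at 25 °C for 1 h and then washed off. The array had been made double-stranded by primer extension with Cy5-dUTP and blocked with 2% BSA. The proteins were transcription factors fused N-terminally to polyhistidine and DsRed, expressed in E. coli BL21-CodonPlus and purified on Ni–NTA. The binding signal is per-feature fluorescence intensity (arbitrary units) from an Axon 4000B scanner.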
row,Sequence,binding signal
1,ATCGCCTTGGGTTGGGTTGTGTCTCTCTCTCTGTCTCCAGCGGAGTCACCTAGTGCAG,11200 fluorescence intensity (a.u.)
2,GGTCGTGCGGCGGGAGGAGGGCGGCGGCGGCTTGGAACTCCGGAGTCACCTAGTGCAG,10100 fluorescence intensity (a.u.)
3,CACCTCACCTCACTCATCCCTGCCAATCCACGCGCTTAATCGGAGTCACCTAGTGCAG,8210 fluorescence intensity (a.u.)
4,TAGGAATATATTTTTTGGGTTTTTTTTGTAACATACACATCGGAGTCACCTAGTGCAG,8380 fluorescence intensity (a.u.)
5,AGACCTATTTTTGGGTACTGTAACTTCCTCGAGATTAGATCGGAGTCACCTAGTGCAG,9040 fluorescence intensity (a.u.)
6,TGGATTGATTTCTTCTTTTGTTGGTAAGGAACCCTGTTTTCGGAGTCACCTAGTGCAG,9390 fluorescence intensity (a.u.)
7,ACACACCCACACTCCTCCATTCACAAAGACCAATATAAATCGGAGTCACCTAGTGCAG,8210 fluorescence intensity (a.u.)
8,GCTTGACCGCTTCTTCAATCTTGATCCGTCCCTCTCACTACGGAGTCACCTAGTGCAG,8680 fluorescence intensity (a.u.)
9,CGCCTCAACACCTGCCAATCAAGCCGGTACCTTTCTCTCTCGGAGTCACCTAGTGCAG,8810 fluorescence intensity (a.u.)
10,AAAATGCCACATCGGTATGCCGCATCTTCGTTGCAATCTTCGGAGTCACCTAGTGCAG,8350 fluorescence intensity (a.u.)
11,CTTGCTTTCATTTTTTTCCTTCCTTTCTTTCTTTCTTTCTCGGAGTCACCTAGTGCAG,8070 fluorescence intensity (a.u.)
12,ACCGGCAGACGGCAGTCCAGCACTCCCGCAATCCCGCTGCCGGAGTCACCTAGTGCAG,9000 fluorescence intensity (a.u.)
13,TTTGATCTAACTCTTGTTGTGCACTCGGTTCAGACATATCCGGAGTCACCTAGTGCAG,9240 fluorescence intensity (a.u.)
14,CTTGTTGACATTCTTTGGTGAGTTTGTCATGGTCTAAAATCGGAGTCACCTAGTGCAG,8380 fluorescence intensity (a.u.)
15,GCCTGATTATCCATTGTTCATCCTGCCATATTGATTTCAGCGGAGTCACCTAGTGCAG,9780 fluorescence intensity (a.u.)
16,TACTACTACTTTCATTGGCCCTGCAATTATTCGTTCAGAACGGAGTCACCTAGTGCAG,9750 fluorescence intensity (a.u.)
17,GTTCTTTGTTGGTTTTGACCCTGATTTTATTCGATGTGACCGGAGTCACCTAGTGCAG,8540 fluorescence intensity (a.u.)
18,TGGATCGGAGCTCTGCTCACGGTGTTTAGCTACCGTTTCTCGGAGTCACCTAGTGCAG,8470 fluorescence intensity (a.u.)
19,CTTCTCGTTCACACTTTTCCAAACGATCGACTGCATAAAACGGAGTCACCTAGTGCAG,12700 fluorescence intensity (a.u.)
20,CTTTTTGCAACAGTCTCATTTCTACCCTCATTGTTAACTTCGGAGTCACCTAGTGCAG,8700 fluorescence intensity (a.u.)
21,TGCAGTTTGAACGCGTTGCTATACTCACAGCCCCTATATCCGGAGTCACCTAGTGCAG,8220 fluorescence intensity (a.u.)

# Exported tab-delimited: part of the list above
row	Sequence	binding signal
10	AAAATGCCACATCGGTATGCCGCATCTTCGTTGCAATCTTCGGAGTCACCTAGTGCAG	8350 fluorescence intensity (a.u.)
17	GTTCTTTGTTGGTTTTGACCCTGATTTTATTCGATGTGACCGGAGTCACCTAGTGCAG	8540 fluorescence intensity (a.u.)
21	TGCAGTTTGAACGCGTTGCTATACTCACAGCCCCTATATCCGGAGTCACCTAGTGCAG	8220 fluorescence intensity (a.u.)

# Next results.

row,Sequence,binding signal
1,TTCGTTGACCAGAATTGAGGGGCTAGCTTAATATTAAATTCGGAGTCACCTAGTGCAG,8890 fluorescence intensity (a.u.)
2,GTCTCGCCGCTCGCCGCCCGCGCGCGCTCGCGTCTCTCGCCGGAGTCACCTAGTGCAG,8500 fluorescence intensity (a.u.)
3,GTTTCCAAGGCTGACCTCCACCATTTCTGGGATCTCTCCACGGAGTCACCTAGTGCAG,8270 fluorescence intensity (a.u.)
4,GAACCCGATCAGCAGCCGTGCACGTGTCCCATACGCCGTTCGGAGTCACCTAGTGCAG,9570 fluorescence intensity (a.u.)
5,GTTTATTTTAAGACAGAGGGACTAACCTACCACTCTCTCCCGGAGTCACCTAGTGCAG,9560 fluorescence intensity (a.u.)
6,GTATCTTCATATTCCAAAATAGTTGTGGTGGGGTAGTGAGCGGAGTCACCTAGTGCAG,9700 fluorescence intensity (a.u.)
7,GATCTCACGATTCGCCTCCGCCGCCCCGTCCTGTTCCCCACGGAGTCACCTAGTGCAG,8560 fluorescence intensity (a.u.)
8,AACACAACACTTGCAAAATTCTGATGAGTACTTCAAAACTCGGAGTCACCTAGTGCAG,8560 fluorescence intensity (a.u.)
9,CTCACATATCTCTTTATCCACACGCATATTTTTCAGACGGCGGAGTCACCTAGTGCAG,9500 fluorescence intensity (a.u.)
10,CGTCCTCGCCGATTCCCACGCCGCCGCCCATCAACTCCGACGGAGTCACCTAGTGCAG,13200 fluorescence intensity (a.u.)
11,CATCTCTCTCTCTCTCTCTCTCTCTCTCTCTCCCACCCCACGGAGTCACCTAGTGCAG,8230 fluorescence intensity (a.u.)
12,ACTTAAATTTTTACCCAATTTTTGAGGCTTTTCATTCAAACGGAGTCACCTAGTGCAG,8090 fluorescence intensity (a.u.)
13,GATCTCGCAATGTGGATTTGTGGTGGCTGTGGGTGGATAACGGAGTCACCTAGTGCAG,9150 fluorescence intensity (a.u.)
14,GATTAAAGAACCGCTTTTCTAAGTACTTTTGACTTGATTACGGAGTCACCTAGTGCAG,8310 fluorescence intensity (a.u.)
15,AACCTGTACCAATTTTAGGTGAATTTCGTTCTGTTTCACCCGGAGTCACCTAGTGCAG,9090 fluorescence intensity (a.u.)
16,TACTCCACCACTGACCACTCCACTCCACAGCTCCACTCCACGGAGTCACCTAGTGCAG,9040 fluorescence intensity (a.u.)
17,AGTTCTCTACCGTCACGATCTACTCCTATTTGTTAATGAACGGAGTCACCTAGTGCAG,9370 fluorescence intensity (a.u.)
18,GGTTAGACCAAATACCCACCCCTACGTGCACCCGACACTACGGAGTCACCTAGTGCAG,8110 fluorescence intensity (a.u.)
19,AAAGGTGATCGAAAACTTTATATTTCTGGTTTTTGCACTACGGAGTCACCTAGTGCAG,8620 fluorescence intensity (a.u.)
20,CACTTATGTCTCTCTCTCTCTCTCTCTCTCTCTCTCGCACCGGAGTCACCTAGTGCAG,11000 fluorescence intensity (a.u.)
21,TTACCTTTACATCCATCCATCAGTTTCAGATAAAATATTTCGGAGTCACCTAGTGCAG,8570 fluorescence intensity (a.u.)
